Data reported in the supplement of paper PMC10849652.
Some of the results follow.

Protein sequences, listed by entry. Tags and fused reporters are not part of them. Lines headed by an entry give the natural chain unless they say otherwise; changes in a name come on top.
UniProt Q86UV5: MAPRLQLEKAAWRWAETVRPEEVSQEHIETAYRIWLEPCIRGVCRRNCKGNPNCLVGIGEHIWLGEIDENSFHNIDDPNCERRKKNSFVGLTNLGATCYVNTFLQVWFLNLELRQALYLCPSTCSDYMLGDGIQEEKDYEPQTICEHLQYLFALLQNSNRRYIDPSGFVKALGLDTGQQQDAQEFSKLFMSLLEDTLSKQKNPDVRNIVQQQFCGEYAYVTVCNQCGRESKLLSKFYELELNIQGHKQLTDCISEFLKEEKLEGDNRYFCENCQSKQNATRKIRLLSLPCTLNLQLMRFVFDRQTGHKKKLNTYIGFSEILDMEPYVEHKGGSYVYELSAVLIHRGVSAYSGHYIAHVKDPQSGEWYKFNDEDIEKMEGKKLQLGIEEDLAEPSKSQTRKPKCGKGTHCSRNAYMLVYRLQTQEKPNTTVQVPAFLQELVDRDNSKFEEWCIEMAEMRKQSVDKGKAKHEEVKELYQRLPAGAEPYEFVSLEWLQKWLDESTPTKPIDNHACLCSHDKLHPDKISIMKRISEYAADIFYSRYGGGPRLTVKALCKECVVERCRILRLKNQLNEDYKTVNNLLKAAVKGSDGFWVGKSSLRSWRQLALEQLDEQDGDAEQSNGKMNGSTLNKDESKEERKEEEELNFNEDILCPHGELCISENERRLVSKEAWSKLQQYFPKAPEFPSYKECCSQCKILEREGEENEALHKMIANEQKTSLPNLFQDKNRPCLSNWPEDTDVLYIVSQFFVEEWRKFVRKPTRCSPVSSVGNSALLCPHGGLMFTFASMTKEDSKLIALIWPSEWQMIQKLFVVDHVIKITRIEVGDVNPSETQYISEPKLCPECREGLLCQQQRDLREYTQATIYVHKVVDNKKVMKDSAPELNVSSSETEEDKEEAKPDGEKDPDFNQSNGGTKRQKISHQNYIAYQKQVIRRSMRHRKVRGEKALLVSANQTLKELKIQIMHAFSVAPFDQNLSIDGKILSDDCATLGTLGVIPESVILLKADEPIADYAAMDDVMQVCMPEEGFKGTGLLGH
UniProt P45974: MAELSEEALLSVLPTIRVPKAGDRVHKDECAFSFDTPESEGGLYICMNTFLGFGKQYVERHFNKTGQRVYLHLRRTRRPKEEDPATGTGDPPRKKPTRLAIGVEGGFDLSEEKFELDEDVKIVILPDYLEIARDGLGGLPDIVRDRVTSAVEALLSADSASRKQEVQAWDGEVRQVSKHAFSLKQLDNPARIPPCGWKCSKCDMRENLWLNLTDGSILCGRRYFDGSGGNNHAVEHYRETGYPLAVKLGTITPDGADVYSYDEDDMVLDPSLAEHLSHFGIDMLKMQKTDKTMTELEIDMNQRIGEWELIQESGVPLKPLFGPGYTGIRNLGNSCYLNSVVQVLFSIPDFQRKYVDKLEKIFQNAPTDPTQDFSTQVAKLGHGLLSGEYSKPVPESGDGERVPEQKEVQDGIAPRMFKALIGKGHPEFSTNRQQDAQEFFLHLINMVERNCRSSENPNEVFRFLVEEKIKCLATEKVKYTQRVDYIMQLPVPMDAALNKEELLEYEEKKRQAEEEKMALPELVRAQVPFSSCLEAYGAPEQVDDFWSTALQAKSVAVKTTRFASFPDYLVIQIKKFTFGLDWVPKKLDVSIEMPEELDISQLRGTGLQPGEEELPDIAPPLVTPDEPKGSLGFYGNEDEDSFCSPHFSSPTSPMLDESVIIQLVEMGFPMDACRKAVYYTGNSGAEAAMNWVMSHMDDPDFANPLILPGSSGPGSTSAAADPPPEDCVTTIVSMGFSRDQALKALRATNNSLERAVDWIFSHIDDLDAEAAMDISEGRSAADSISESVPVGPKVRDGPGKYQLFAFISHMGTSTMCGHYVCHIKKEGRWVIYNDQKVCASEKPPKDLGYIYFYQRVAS
UniProt P22695: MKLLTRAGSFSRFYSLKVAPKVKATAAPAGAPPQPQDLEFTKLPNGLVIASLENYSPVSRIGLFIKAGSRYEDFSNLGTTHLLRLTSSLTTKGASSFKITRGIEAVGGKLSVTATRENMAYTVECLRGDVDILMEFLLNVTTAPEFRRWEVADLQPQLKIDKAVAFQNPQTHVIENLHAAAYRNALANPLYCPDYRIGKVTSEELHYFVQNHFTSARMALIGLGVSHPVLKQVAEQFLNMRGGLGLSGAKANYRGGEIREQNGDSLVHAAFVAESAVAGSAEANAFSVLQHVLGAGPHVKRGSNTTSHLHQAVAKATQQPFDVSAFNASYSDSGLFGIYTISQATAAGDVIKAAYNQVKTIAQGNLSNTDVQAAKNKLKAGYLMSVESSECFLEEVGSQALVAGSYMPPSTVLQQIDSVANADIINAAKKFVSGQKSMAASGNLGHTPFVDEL
UniProt P15498: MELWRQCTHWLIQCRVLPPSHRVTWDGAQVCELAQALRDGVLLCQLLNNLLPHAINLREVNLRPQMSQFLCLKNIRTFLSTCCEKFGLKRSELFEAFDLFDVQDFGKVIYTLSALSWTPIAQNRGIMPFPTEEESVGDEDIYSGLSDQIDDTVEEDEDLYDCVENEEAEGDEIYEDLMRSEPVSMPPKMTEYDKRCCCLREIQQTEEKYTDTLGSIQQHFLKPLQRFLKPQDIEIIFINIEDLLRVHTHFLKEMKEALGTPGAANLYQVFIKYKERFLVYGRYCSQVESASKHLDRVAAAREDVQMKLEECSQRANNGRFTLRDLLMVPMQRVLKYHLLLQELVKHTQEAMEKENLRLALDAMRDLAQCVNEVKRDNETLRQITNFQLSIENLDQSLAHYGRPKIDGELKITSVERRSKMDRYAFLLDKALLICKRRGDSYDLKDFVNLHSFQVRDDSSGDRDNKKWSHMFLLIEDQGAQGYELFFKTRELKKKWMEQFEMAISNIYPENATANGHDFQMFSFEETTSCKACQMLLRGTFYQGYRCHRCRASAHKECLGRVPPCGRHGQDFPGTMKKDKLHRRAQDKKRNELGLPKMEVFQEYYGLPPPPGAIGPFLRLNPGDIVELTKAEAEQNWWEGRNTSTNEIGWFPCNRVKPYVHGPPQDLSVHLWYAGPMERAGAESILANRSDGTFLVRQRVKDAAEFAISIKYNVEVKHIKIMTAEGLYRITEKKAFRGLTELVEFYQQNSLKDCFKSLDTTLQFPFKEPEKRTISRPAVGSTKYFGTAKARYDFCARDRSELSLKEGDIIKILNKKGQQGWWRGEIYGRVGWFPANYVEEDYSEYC
UniProt P22415: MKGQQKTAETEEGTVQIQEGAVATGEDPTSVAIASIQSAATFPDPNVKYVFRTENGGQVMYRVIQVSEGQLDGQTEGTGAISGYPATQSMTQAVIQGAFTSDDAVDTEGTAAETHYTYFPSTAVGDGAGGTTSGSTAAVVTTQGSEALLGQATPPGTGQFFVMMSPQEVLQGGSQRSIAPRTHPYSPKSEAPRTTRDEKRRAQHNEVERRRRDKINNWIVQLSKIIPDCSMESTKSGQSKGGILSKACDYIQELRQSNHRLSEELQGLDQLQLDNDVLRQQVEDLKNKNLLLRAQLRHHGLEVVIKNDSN
UniProt Q9H9C1: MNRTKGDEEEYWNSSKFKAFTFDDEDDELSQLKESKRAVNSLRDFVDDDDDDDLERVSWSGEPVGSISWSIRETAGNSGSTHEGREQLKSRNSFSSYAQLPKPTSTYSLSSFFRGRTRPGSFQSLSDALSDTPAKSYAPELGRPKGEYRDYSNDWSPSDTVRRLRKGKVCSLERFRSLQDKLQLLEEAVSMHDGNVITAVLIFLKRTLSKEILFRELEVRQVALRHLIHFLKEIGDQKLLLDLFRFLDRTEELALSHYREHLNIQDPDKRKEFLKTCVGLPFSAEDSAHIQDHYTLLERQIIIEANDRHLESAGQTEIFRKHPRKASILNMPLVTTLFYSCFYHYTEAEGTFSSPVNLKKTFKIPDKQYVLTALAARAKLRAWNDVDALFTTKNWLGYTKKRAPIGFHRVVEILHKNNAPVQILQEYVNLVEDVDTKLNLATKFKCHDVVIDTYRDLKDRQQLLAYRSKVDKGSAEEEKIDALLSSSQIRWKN
UniProt Q08AM6: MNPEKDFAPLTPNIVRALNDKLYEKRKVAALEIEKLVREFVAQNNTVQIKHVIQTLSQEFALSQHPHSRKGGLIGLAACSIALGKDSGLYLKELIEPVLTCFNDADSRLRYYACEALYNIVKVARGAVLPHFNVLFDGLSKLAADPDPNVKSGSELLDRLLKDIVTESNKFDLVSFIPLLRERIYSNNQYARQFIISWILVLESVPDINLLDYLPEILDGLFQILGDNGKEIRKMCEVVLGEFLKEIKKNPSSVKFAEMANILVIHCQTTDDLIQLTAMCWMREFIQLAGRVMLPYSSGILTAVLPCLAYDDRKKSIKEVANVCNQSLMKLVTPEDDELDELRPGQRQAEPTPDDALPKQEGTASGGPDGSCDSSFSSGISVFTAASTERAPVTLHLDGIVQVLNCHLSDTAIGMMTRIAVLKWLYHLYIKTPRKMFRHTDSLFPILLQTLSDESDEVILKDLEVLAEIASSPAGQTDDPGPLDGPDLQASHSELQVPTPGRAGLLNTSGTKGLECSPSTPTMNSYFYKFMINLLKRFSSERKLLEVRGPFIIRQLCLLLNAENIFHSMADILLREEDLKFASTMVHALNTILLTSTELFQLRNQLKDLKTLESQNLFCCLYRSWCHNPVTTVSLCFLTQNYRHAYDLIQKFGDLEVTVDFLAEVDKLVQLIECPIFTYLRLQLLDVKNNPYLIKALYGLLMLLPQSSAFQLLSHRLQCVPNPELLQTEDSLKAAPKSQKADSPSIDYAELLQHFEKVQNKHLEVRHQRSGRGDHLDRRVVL
UniProt Q69YN4: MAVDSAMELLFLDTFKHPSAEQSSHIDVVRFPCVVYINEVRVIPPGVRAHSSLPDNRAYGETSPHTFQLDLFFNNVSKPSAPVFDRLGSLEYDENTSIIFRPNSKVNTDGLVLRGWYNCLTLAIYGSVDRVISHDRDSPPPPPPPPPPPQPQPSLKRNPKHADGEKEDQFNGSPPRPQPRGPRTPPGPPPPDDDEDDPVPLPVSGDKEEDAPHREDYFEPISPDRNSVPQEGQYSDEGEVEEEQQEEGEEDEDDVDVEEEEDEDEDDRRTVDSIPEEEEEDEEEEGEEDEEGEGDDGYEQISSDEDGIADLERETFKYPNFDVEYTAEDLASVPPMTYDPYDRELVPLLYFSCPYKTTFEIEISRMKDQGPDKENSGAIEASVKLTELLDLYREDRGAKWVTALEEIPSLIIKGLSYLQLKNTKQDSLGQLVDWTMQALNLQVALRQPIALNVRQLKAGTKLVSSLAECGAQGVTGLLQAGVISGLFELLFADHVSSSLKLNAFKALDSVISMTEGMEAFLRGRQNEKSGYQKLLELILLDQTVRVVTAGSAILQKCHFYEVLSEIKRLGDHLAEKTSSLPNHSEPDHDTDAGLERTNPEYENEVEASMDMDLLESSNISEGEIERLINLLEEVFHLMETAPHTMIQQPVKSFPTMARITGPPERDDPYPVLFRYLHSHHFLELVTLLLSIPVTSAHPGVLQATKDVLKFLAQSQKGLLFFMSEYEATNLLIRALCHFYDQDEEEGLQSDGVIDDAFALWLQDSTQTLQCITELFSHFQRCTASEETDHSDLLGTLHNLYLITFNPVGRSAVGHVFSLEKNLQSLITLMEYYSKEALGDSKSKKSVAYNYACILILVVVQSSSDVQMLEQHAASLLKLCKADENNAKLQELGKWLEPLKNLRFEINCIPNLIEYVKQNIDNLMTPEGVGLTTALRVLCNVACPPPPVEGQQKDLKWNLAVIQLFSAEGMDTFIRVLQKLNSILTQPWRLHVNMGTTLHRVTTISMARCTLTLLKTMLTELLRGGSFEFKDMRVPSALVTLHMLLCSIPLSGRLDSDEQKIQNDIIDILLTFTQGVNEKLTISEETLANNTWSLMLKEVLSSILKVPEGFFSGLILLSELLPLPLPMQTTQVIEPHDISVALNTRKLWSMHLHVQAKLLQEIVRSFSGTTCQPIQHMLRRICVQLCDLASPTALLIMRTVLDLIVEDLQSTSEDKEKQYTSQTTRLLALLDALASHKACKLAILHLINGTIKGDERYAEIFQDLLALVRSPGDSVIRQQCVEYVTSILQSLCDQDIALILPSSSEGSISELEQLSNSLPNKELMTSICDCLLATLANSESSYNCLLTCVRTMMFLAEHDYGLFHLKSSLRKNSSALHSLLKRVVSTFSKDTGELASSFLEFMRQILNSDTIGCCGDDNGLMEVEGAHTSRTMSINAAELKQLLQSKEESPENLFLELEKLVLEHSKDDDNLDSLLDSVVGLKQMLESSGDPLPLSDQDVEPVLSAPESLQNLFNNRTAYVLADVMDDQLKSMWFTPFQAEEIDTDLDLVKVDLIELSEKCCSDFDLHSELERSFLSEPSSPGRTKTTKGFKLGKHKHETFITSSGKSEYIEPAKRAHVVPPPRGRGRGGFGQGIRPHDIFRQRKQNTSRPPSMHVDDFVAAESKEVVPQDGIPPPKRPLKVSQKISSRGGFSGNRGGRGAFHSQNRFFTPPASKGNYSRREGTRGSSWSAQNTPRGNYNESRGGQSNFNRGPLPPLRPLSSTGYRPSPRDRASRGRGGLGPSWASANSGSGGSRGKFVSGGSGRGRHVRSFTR

What was measured:
Assay in all cases: log2 fold change, soluble protein after heating vs DMSO (PISA); higher = thermal stabilisation; K562 lysate, 10 uM; active = over 0.2 and 3.5 SD of the protein, either way, in both replicates (recomputed)
lapatinib = compound: CS(=O)(=O)CCNCc1ccc(-c2ccc3ncnc(Nc4ccc(OCc5cccc(F)c5)c(Cl)c4)c3c2)o1 [lapatinib]
Procedure, shortened: (§1)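 Dounce homogenisation of K562 pellets in PBS pH 7.4 with 1 mM MgCl2 produced a crude extract, used at 1 mg/mL protein. Exposure to 10 μM compound lasted 30 min, and aliquots were then heated for 3 min across 48°C-58°C, pooled and brought to 0.5% NP-40 at 4°C. The supernatant after 21,000xg for 90 min was quantified by TMTpro 16plex LC-MS/MS with channel sums equalised. Duplicate values are given as log-two fold change in thermal stability relative to solvent controls.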

pictilisib = compound: CS(=O)(=O)N1CCN(Cc2cc3nc(-c4cccc5[nH]ncc45)nc(N4CCOCC4)c3s2)CC1 [pictilisib]
Procedure, shortened: as §1

crizotinib = compound: C[C@@H](Oc1cc(-c2cnn(C3CCNCC3)c2)cnc1N)c1c(Cl)ccc(F)c1Cl [crizotinib]
Procedure, shortened: as §1

[1] = compound: C[C@H](C1=CC=C(C=C1)C(=O)NC2=C3C=CNC3=NC=C2)N
Procedure, shortened: as §1

duvelisib = compound: C[C@H](Nc1ncnc2nc[nH]c12)c1cc2cccc(Cl)c2c(=O)n1-c1ccccc1 [duvelisib]
Procedure, shortened: as §1

gandotinib = compound: Cc1cc(Nc2cc(CN3CCOCC3)c3nc(C)c(Cc4ccc(Cl)cc4F)n3n2)n[nH]1 [gandotinib]
Procedure, shortened: as §1

tozasertib = compound: Cc1cc(Nc2cc(N3CCN(C)CC3)nc(Sc3ccc(NC(=O)C4CC4)cc3)n2)n[nH]1 [tozasertib]
Procedure, shortened: as §1

doramapimod = compound: Cc1ccc(-n2nc(C(C)(C)C)cc2NC(=O)Nc2ccc(OCCN3CCOCC3)c3ccccc23)cc1 [doramapimod]
Procedure, shortened: as §1

bafetinib = compound: Cc1ccc(NC(=O)c2ccc(CN3CC[C@H](N(C)C)C3)c(C(F)(F)F)c2)cc1Nc1nccc(-c2cncnc2)n1 [bafetinib]
Procedure, shortened: as §1

[2] = compound: Cc1cccc(CC(=O)N2CCc3c2ccc(-c2cn(C)c4ncnc(N)c24)c3F)n1
Procedure, shortened: as §1

nilotinib = compound: Cc1cn(-c2cc(NC(=O)c3ccc(C)c(Nc4nccc(-c5cccnc5)n4)c3)cc(C(F)(F)F)c2)cn1 [nilotinib]
Procedure, shortened: as §1

[3] = compound: Cc1nc(Nc2n[nH]c3c2CN(C(=O)N[C@H](CN(C)C)c2ccccc2)C3(C)C)c2sccc2n1
Procedure, shortened: as §1

dasatinib = compound: Cc1nc(Nc2ncc(C(=O)Nc3c(C)cccc3Cl)s2)cc(N2CCN(CCO)CC2)n1 [dasatinib]
Procedure, shortened: as §1

[4] = compound: Cc1ncc(-c2ccnc(Nc3ccc(S(C)(=O)=O)cc3)n2)n1C(C)C
Procedure, shortened: as §1

[5] = compound: Cn1cc(-c2ccc3c(c2)CCN3C(=O)Cc2cccc(C(F)(F)F)c2)c2c(N)ncnc21
Procedure, shortened: as §1

quisinostat = compound: Cn1cc(CNCC2CCN(c3ncc(C(=O)NO)cn3)CC2)c2ccccc21 [quisinostat]
Procedure, shortened: as §1

tipifarnib = compound: Cn1cncc1[C@@](N)(c1ccc(Cl)cc1)c1ccc2c(c1)c(-c1cccc(Cl)c1)cc(=O)n2C [tipifarnib]
Procedure, shortened: as §1

[6] = compound: NC(=O)Nc1cc(-c2cccc(F)c2)sc1C(=O)N[C@H]1CCCNC1
Procedure, shortened: as §1

[7] = compound: NC(=O)c1cnc(N[C@@H]2CCCC[C@@H]2N)nc1Nc1cccc(-n2nccn2)c1
Procedure, shortened: as §1

[8] = compound: NC1(c2ccc(-c3nc4ccn5c(=O)[nH]nc5c4cc3-c3ccccc3)cc2)CCC1
Procedure, shortened: as §1

Measured: log2 fold change

UHRF1 isoform 2 (UniProt Q96T88)
inactive: lapatinib 0.01 | pictilisib -0.083 | crizotinib -0.03 | [1] -0.116 | duvelisib 0.036 | gandotinib -0.047 | tozasertib 0.091 | doramapimod 0.047 | bafetinib 0.06 | [2] 0.006 | nilotinib -0.036 | [3] -0.063 | dasatinib -0.045 | [4] -0.003 | [5] 0.073 | quisinostat -0.009 | tipifarnib 0.038 | [6] -0.022 | [7] 0.044 | [8] -0.018

UFSP2 (UniProt Q9NUQ7)
inactive: lapatinib -0.02 | pictilisib -0.008 | crizotinib -0.022 | [1] -0.012 | duvelisib 0.009 | gandotinib -0.004 | tozasertib 0.017 | doramapimod 0.002 | bafetinib -0.028 | [2] 0.017 | nilotinib -0.004 | [3] -0.015 | dasatinib 0.007 | [4] -0.038 | [5] -0.002 | quisinostat 0.004 | tipifarnib -0.001 | [6] 0.016 | [7] 0.002 | [8] -0.035

USP48 isoform 8 (UniProt Q86UV5)
inactive: lapatinib -0.01 | pictilisib -0.001 | crizotinib -0.022 | [1] -0.006 | duvelisib -0.001 | gandotinib -0.044 | tozasertib 0.008 | doramapimod 0.024 | bafetinib -0.027 | [2] 0.034 | nilotinib 0.018 | [3] 0.008 | dasatinib 0.001 | [4] 0 | [5] 0.015 | quisinostat -0.04 | tipifarnib -0.011 | [6] 0.008 | [7] -0.001 | [8] -0.024

UQCC2 (UniProt Q9BRT2)
inactive: lapatinib 0.007 | pictilisib 0.009 | crizotinib 0.036 | [1] 0.158 | duvelisib 0.026 | gandotinib -0.091 | tozasertib -0.015 | doramapimod 0.014 | bafetinib 0.001 | [2] -0.093 | nilotinib -0.018 | [3] -0.006 | dasatinib 0.002 | [4] 0.012 | [5] -0.001 | quisinostat 0 | tipifarnib 0.058 | [6] -0.076 | [7] -0.005 | [8] 0.018

USP5 isoform 2 (UniProt P45974)
inactive: lapatinib 0.011 | pictilisib 0.012 | crizotinib -0.002 | [1] -0.012 | duvelisib 0.003 | gandotinib 0.019 | tozasertib 0.018 | doramapimod 0.015 | bafetinib -0.004 | [2] 0.014 | nilotinib -0.007 | [3] -0.013 | dasatinib 0.023 | [4] 0.003 | [5] -0.003 | quisinostat -0.01 | tipifarnib 0.005 | [6] 0.009 | [7] 0.006 | [8] 0.022

UQCRC2 (UniProt P22695)
inactive: lapatinib -0.04 | pictilisib -0.008 | crizotinib 0.019 | [1] -0.011 | duvelisib 0.001 | gandotinib -0.004 | tozasertib -0.025 | doramapimod -0.027 | bafetinib -0.05 | [2] -0.007 | nilotinib 0.034 | [3] -0.028 | dasatinib 0 | [4] 0.004 | [5] -0.043 | quisinostat 0.007 | tipifarnib -0.011 | [6] 0.02 | [7] -0.008 | [8] 0.011

VAV1 (UniProt P15498)
inactive: lapatinib 0 | pictilisib 0.012 | crizotinib -0.059 | [1] -0.057 | duvelisib 0.071 | gandotinib -0.02 | tozasertib 0.011 | doramapimod -0.044 | bafetinib -0.087 | [2] 0.066 | nilotinib 0.022 | [3] -0.031 | dasatinib 0.007 | [4] 0.009 | [5] 0.04 | quisinostat 0.022 | tipifarnib 0 | [6] -0.018 | [7] 0.007 | [8] -0.054

USF1 (UniProt P22415)
inactive: lapatinib -0.049 | pictilisib -0.013 | crizotinib -0.031 | [1] -0.03 | duvelisib 0.061 | gandotinib 0.075 | tozasertib 0.047 | doramapimod 0.03 | bafetinib -0.06 | [2] 0.02 | nilotinib -0.079 | [3] 0.012 | dasatinib 0.077 | [4] -0.042 | [5] 0.022 | quisinostat 0.009 | tipifarnib -0.007 | [6] 0.029 | [7] 0 | [8] -0.012

VIPAS39 (UniProt Q9H9C1)
inactive: lapatinib -0.038 | pictilisib -0.024 | crizotinib -0.01 | [1] -0.058 | duvelisib -0.027 | gandotinib 0.007 | tozasertib 0.086 | doramapimod 0.075 | bafetinib -0.029 | [2] 0.12 | nilotinib 0.069 | [3] -0.06 | dasatinib -0.081 | [4] 0.017 | [5] -0.063 | quisinostat -0.052 | tipifarnib -0.106 | [6] 0.016 | [7] 0.045 | [8] -0.061

UQCR11 (UniProt O14957)
inactive: lapatinib 0.014 | pictilisib -0.186 | crizotinib 0.097 | [1] 0.1 | duvelisib 0.01 | gandotinib 0 | tozasertib -0.02 | doramapimod 0.016 | bafetinib -0.044 | [2] -0.055 | nilotinib 0.096 | [3] -0.001 | dasatinib 0.03 | [4] 0.137 | [5] -0.012 | quisinostat 0 | tipifarnib 0.044 | [6] -0.022 | [7] -0.079 | [8] -0.015

USF2 (UniProt Q15853)
inactive: lapatinib 0.02 | pictilisib 0.007 | crizotinib 0.031 | [1] 0.055 | duvelisib 0.054 | gandotinib 0.016 | tozasertib 0.143 | doramapimod -0.053 | bafetinib 0.006 | [2] -0.014 | nilotinib -0.049 | [3] -0.058 | dasatinib 0.024 | [4] -0.15 | [5] 0.035 | quisinostat -0.071 | tipifarnib 0.012 | [6] -0.003 | [7] 0.026 | [8] 0.024

UPF2 (UniProt Q9HAU5)
inactive: lapatinib -0.005 | pictilisib -0.011 | crizotinib -0.016 | [1] -0.026 | duvelisib -0.025 | gandotinib -0.052 | tozasertib -0.009 | doramapimod 0.052 | bafetinib -0.031 | [2] 0.023 | nilotinib -0.011 | [3] 0.018 | dasatinib -0.014 | [4] -0.007 | [5] 0.009 | quisinostat 0 | tipifarnib 0.007 | [6] 0.015 | [7] -0.016 | [8] -0.008

UROD (UniProt P06132)
inactive: lapatinib 0.034 | pictilisib -0.003 | crizotinib 0.033 | [1] -0.018 | duvelisib 0.01 | gandotinib 0.006 | tozasertib -0.03 | doramapimod 0 | bafetinib 0.096 | [2] -0.036 | nilotinib 0.043 | [3] 0.006 | dasatinib 0.014 | [4] 0.004 | [5] -0.001 | quisinostat 0.056 | tipifarnib -0.004 | [6] -0.032 | [7] 0.005 | [8] 0.007

VAC14 (UniProt Q08AM6)
inactive: lapatinib -0.034 | pictilisib -0.005 | crizotinib -0.047 | [1] -0.028 | duvelisib -0.004 | gandotinib -0.069 | tozasertib -0.005 | doramapimod 0.037 | bafetinib -0.036 | [2] 0.067 | nilotinib -0.014 | [3] 0.018 | dasatinib -0.022 | [4] 0.009 | [5] 0.058 | quisinostat -0.07 | tipifarnib -0.059 | [6] 0.012 | [7] -0.002 | [8] -0.027

USP16 (UniProt Q9Y5T5)
inactive: lapatinib 0.003 | pictilisib -0.049 | crizotinib -0.018 | [1] 0.003 | duvelisib 0.049 | gandotinib -0.039 | tozasertib 0.006 | doramapimod -0.017 | bafetinib -0.037 | [2] 0.035 | nilotinib 0.016 | [3] 0.005 | dasatinib 0.053 | [4] 0.014 | [5] 0.041 | quisinostat -0.014 | tipifarnib 0.016 | [6] 0.011 | [7] 0.023 | [8] 0.012

VIRMA (UniProt Q69YN4)
inactive: lapatinib -0.062 | pictilisib -0.049 | crizotinib -0.048 | [1] 0.022 | duvelisib -0.027 | gandotinib -0.064 | tozasertib 0.019 | doramapimod 0.029 | bafetinib -0.046 | [2] 0.065 | nilotinib -0.004 | [3] 0.021 | dasatinib -0.008 | [4] -0.096 | [5] -0.018 | quisinostat -0.034 | tipifarnib -0.005 | [6] -0.004 | [7] 0.067 | [8] -0.002
